Reference: PMC2613030
These are yes or no findings as the source states them, for the method shown. In cells and extracts the contact can be indirect. Binding can be weak; no strength is given.

Molecular target: mosquito salivary gland secreted protein SG1 (not stated (endogenous in mosquito salivary glands; An. gambiae and An. stephensi colonies kept))
Assay: cross-linking; double-derivatized SM1 (10 µg/ml in PBS) incubated with freshly dissected salivary glands 1 h at 4°C in the dark, washed, UV 30 min, glands lysed (0.1% NP40), capture on streptavidin-agarose beads, SDS-PAGE under reducing conditions, bands identified by LC/MS/MS; only the binder purified

- binding: binds
Binder: PCQRAIFQSICN [double-derivatized SM1 peptide]
